Reference: publication PMC9016078
Positions count from the first letter of the chain named. These are yes or no findings as the source states them, for the method shown. In cells and extracts the contact can be indirect. Some binding calls cover weakened binding; strength is not graded here.

Tests used:
[1] = target: T1, gamma-aminobutyric acid A receptor (GABAAR) γ2 subunit F77I (mouse (endogenous in liver)) (UniProt P22723); test: co-IP; liver protein extracts (500 μg) of mice on high-fat diet; IP with goat polyclonal GABAAR γ2 antibody (3 μg) or isotype IgG on protein A/G-Sepharose, overnight 4 °C, three PBS washes; immunoblot for GABAAR γ2 and ACBP
T1 sequence: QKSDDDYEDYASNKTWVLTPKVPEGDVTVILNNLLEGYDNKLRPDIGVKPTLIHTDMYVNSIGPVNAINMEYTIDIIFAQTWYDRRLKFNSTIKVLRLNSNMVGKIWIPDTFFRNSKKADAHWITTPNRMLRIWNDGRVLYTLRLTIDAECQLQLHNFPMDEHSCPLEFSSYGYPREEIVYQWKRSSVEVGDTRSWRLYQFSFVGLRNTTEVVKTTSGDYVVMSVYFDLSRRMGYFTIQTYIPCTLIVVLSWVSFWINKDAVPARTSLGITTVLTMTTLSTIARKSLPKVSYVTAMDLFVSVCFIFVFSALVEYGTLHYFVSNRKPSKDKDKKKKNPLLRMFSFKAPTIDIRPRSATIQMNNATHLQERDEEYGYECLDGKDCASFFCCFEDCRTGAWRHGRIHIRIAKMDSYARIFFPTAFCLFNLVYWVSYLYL

[2] = target: T2, gamma-aminobutyric acid A receptor (GABAAR) γ2 subunit, wild type (mouse (endogenous in liver)) (UniProt P22723); test: as above
T2 sequence: T1 sequence with I77F

- binding [1]: no binding
- binding [2]: binds
B1: Acyl-coenzyme-A-binding protein (ACBP) (protein, UniProt P31786 1-87)
chain: MSQAEFDKAAEEVKRLKTQPTDEEMLFIYSHFKQATVGDVNTDRPGLLDLKGKAKWDSWNKLKGTSKESAMKTYVEKVDELKKKYGI
